This is an account of results in publication doi:10.1101/2025.04.25.650293.

Chains of the proteins cited; added tags and fusions are not shown.
UniProt Q13547: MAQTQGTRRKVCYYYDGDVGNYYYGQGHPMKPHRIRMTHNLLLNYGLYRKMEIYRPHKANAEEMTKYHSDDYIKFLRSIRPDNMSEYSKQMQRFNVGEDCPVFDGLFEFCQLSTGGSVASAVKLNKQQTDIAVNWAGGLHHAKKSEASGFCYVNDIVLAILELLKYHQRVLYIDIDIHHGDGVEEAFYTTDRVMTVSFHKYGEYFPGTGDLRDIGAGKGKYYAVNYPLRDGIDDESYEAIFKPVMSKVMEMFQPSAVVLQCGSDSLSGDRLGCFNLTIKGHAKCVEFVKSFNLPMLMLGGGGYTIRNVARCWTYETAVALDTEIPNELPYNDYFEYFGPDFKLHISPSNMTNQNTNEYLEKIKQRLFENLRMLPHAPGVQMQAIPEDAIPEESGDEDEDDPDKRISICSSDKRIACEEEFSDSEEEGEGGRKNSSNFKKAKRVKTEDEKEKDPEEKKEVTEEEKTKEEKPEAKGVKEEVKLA

For test [1], the target named is T1, ELMSAN1 (human (endogenous in 143B)) (UniProt Q6PJG2).
T1 sequence: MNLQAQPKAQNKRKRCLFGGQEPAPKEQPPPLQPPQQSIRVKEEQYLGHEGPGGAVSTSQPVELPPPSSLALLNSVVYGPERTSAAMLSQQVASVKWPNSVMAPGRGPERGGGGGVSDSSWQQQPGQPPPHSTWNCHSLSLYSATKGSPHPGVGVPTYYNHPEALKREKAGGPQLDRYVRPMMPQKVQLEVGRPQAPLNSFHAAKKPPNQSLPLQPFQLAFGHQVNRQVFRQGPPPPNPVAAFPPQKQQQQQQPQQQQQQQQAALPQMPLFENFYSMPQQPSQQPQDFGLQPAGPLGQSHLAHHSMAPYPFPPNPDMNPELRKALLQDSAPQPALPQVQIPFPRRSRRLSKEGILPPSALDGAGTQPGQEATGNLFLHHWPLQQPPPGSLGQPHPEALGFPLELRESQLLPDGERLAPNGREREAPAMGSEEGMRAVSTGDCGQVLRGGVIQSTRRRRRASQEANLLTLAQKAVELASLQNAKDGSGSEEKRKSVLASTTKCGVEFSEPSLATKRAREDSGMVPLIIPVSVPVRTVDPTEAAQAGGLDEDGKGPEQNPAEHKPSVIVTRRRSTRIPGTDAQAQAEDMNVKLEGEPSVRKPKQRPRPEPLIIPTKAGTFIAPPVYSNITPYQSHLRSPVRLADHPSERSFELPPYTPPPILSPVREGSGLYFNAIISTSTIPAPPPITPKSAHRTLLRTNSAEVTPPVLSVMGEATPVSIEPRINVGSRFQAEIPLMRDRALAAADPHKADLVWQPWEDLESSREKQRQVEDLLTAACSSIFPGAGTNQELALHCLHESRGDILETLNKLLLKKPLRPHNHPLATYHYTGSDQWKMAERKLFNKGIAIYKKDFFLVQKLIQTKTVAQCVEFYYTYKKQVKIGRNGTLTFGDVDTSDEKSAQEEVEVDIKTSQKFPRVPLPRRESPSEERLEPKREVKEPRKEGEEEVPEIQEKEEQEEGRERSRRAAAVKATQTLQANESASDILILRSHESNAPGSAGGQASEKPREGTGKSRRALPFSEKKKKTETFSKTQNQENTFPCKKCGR
In words: co-IP.

Test [2] addresses T1, ELMSAN1 (human (endogenous in 143B)). In words: co-IP. This is another data set of the same source.
Test [3] addresses T2, recombinant His-ELMSAN1 (UniProt Q6PJG2).
T2 sequence: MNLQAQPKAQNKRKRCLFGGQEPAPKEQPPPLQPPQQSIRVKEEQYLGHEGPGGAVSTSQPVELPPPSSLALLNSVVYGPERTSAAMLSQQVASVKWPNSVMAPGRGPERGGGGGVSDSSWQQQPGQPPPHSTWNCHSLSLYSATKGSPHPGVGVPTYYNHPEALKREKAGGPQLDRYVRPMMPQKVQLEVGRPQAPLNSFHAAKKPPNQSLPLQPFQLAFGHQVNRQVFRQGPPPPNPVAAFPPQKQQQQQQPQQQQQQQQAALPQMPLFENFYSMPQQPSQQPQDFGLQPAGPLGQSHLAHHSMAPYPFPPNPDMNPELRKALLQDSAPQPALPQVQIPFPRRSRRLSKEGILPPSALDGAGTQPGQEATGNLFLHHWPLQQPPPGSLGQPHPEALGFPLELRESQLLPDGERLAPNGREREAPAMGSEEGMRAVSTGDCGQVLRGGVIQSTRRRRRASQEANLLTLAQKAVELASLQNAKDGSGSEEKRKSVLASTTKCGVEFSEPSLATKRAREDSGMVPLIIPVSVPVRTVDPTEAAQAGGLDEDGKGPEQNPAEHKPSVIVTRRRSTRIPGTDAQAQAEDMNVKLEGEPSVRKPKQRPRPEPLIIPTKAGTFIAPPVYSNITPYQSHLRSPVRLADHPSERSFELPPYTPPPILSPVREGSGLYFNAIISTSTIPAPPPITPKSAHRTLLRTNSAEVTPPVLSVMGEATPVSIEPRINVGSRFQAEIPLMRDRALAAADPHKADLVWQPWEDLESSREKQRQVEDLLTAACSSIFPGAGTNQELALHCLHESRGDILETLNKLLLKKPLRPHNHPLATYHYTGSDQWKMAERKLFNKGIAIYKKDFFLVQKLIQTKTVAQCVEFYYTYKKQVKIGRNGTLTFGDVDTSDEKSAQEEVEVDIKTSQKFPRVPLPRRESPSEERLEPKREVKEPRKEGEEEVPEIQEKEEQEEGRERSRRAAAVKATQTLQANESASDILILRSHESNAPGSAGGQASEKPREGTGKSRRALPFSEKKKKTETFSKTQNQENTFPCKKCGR
As to the kind of experiment: pull-down.

Test [4] concerns the target T3, in vitro translated His-HA-ELMSAN1 (UniProt Q6PJG2).
T3 sequence: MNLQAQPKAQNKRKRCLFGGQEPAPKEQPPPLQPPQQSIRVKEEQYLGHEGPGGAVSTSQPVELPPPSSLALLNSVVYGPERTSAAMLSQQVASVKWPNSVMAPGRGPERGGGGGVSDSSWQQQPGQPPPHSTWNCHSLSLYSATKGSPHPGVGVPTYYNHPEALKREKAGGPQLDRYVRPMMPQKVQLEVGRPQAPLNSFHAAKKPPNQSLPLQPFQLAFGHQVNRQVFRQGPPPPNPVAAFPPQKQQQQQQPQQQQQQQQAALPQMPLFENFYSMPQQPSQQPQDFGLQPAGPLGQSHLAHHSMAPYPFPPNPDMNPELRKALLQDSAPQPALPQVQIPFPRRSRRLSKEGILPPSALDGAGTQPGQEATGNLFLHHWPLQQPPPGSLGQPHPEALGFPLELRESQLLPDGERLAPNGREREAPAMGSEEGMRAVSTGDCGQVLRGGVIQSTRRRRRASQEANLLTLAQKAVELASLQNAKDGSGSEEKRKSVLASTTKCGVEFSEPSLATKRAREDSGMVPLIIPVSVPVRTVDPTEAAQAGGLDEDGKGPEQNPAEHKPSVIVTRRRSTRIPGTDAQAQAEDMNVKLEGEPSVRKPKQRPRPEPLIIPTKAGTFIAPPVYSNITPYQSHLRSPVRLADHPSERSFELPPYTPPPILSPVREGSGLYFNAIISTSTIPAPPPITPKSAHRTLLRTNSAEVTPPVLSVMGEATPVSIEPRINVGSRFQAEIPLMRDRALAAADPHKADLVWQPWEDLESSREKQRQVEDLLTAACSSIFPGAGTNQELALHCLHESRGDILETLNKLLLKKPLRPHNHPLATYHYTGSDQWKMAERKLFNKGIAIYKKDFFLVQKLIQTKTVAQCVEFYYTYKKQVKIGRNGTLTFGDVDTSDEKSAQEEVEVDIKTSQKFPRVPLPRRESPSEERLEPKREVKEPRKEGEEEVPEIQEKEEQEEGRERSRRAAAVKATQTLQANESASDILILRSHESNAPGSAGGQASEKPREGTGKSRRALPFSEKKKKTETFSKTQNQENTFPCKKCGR
In words: pull-down.

The target in test [5] is T4, DLAT (dihydrolipoamide S-acetyltransferase, the PDC E2 subunit) (human (endogenous in 143B)) (UniProt P10515).
T4 sequence: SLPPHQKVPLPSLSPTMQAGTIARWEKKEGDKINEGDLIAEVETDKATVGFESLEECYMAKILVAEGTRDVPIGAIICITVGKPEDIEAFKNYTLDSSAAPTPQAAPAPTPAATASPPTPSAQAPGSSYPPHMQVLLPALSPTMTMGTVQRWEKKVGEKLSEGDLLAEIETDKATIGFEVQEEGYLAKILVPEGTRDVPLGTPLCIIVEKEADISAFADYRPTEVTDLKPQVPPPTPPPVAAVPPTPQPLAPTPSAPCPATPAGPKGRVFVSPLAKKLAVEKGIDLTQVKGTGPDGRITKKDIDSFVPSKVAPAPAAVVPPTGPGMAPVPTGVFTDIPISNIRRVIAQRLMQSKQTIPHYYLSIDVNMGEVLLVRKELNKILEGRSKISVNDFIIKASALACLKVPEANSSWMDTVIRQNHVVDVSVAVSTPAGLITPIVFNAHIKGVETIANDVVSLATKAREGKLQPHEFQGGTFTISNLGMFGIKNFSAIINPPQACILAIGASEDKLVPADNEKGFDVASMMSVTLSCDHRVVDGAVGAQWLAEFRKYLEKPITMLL
In words: co-IP.

The target of test [6] is HDAC1 (human (endogenous in 143B)) (UniProt Q13547). In words: co-IP.

Where two headings read alike, the source gives them in different places. Results are given in words; binding and its absence hold for the method and conditions named. For part of these data: In cells and extracts the contact can be indirect. Some results given as binding are weak or reduced against the parent protein; the word gives no strength. For part of these data: Sequences can lack the tags named with a protein.

B1: DLAT (dihydrolipoamide S-acetyltransferase, the PDC E2 subunit) (protein, UniProt P10515 87-647)
chain: SLPPHQKVPLPSLSPTMQAGTIARWEKKEGDKINEGDLIAEVETDKATVGFESLEECYMAKILVAEGTRDVPIGAIICITVGKPEDIEAFKNYTLDSSAAPTPQAAPAPTPAATASPPTPSAQAPGSSYPPHMQVLLPALSPTMTMGTVQRWEKKVGEKLSEGDLLAEIETDKATIGFEVQEEGYLAKILVPEGTRDVPLGTPLCIIVEKEADISAFADYRPTEVTDLKPQVPPPTPPPVAAVPPTPQPLAPTPSAPCPATPAGPKGRVFVSPLAKKLAVEKGIDLTQVKGTGPDGRITKKDIDSFVPSKVAPAPAAVVPPTGPGMAPVPTGVFTDIPISNIRRVIAQRLMQSKQTIPHYYLSIDVNMGEVLLVRKELNKILEGRSKISVNDFIIKASALACLKVPEANSSWMDTVIRQNHVVDVSVAVSTPAGLITPIVFNAHIKGVETIANDVVSLATKAREGKLQPHEFQGGTFTISNLGMFGIKNFSAIINPPQACILAIGASEDKLVPADNEKGFDVASMMSVTLSCDHRVVDGAVGAQWLAEFRKYLEKPITMLL
Take B1: the binding result in test [1] and in test [2] was “binds” in each case.

B2: recombinant Glutathione S-transferase (GST)-DLAT (protein, UniProt P10515 87-647)
chain: SLPPHQKVPLPSLSPTMQAGTIARWEKKEGDKINEGDLIAEVETDKATVGFESLEECYMAKILVAEGTRDVPIGAIICITVGKPEDIEAFKNYTLDSSAAPTPQAAPAPTPAATASPPTPSAQAPGSSYPPHMQVLLPALSPTMTMGTVQRWEKKVGEKLSEGDLLAEIETDKATIGFEVQEEGYLAKILVPEGTRDVPLGTPLCIIVEKEADISAFADYRPTEVTDLKPQVPPPTPPPVAAVPPTPQPLAPTPSAPCPATPAGPKGRVFVSPLAKKLAVEKGIDLTQVKGTGPDGRITKKDIDSFVPSKVAPAPAAVVPPTGPGMAPVPTGVFTDIPISNIRRVIAQRLMQSKQTIPHYYLSIDVNMGEVLLVRKELNKILEGRSKISVNDFIIKASALACLKVPEANSSWMDTVIRQNHVVDVSVAVSTPAGLITPIVFNAHIKGVETIANDVVSLATKAREGKLQPHEFQGGTFTISNLGMFGIKNFSAIINPPQACILAIGASEDKLVPADNEKGFDVASMMSVTLSCDHRVVDGAVGAQWLAEFRKYLEKPITMLL
In the case of B2, the binding entry in test [3] and in test [4] was “binds” in each case.

B3: ELMSAN1 (protein, UniProt Q6PJG2 1-1045)
chain: MNLQAQPKAQNKRKRCLFGGQEPAPKEQPPPLQPPQQSIRVKEEQYLGHEGPGGAVSTSQPVELPPPSSLALLNSVVYGPERTSAAMLSQQVASVKWPNSVMAPGRGPERGGGGGVSDSSWQQQPGQPPPHSTWNCHSLSLYSATKGSPHPGVGVPTYYNHPEALKREKAGGPQLDRYVRPMMPQKVQLEVGRPQAPLNSFHAAKKPPNQSLPLQPFQLAFGHQVNRQVFRQGPPPPNPVAAFPPQKQQQQQQPQQQQQQQQAALPQMPLFENFYSMPQQPSQQPQDFGLQPAGPLGQSHLAHHSMAPYPFPPNPDMNPELRKALLQDSAPQPALPQVQIPFPRRSRRLSKEGILPPSALDGAGTQPGQEATGNLFLHHWPLQQPPPGSLGQPHPEALGFPLELRESQLLPDGERLAPNGREREAPAMGSEEGMRAVSTGDCGQVLRGGVIQSTRRRRRASQEANLLTLAQKAVELASLQNAKDGSGSEEKRKSVLASTTKCGVEFSEPSLATKRAREDSGMVPLIIPVSVPVRTVDPTEAAQAGGLDEDGKGPEQNPAEHKPSVIVTRRRSTRIPGTDAQAQAEDMNVKLEGEPSVRKPKQRPRPEPLIIPTKAGTFIAPPVYSNITPYQSHLRSPVRLADHPSERSFELPPYTPPPILSPVREGSGLYFNAIISTSTIPAPPPITPKSAHRTLLRTNSAEVTPPVLSVMGEATPVSIEPRINVGSRFQAEIPLMRDRALAAADPHKADLVWQPWEDLESSREKQRQVEDLLTAACSSIFPGAGTNQELALHCLHESRGDILETLNKLLLKKPLRPHNHPLATYHYTGSDQWKMAERKLFNKGIAIYKKDFFLVQKLIQTKTVAQCVEFYYTYKKQVKIGRNGTLTFGDVDTSDEKSAQEEVEVDIKTSQKFPRVPLPRRESPSEERLEPKREVKEPRKEGEEEVPEIQEKEEQEEGRERSRRAAAVKATQTLQANESASDILILRSHESNAPGSAGGQASEKPREGTGKSRRALPFSEKKKKTETFSKTQNQENTFPCKKCGR
For B3, the binding entry in test [5] and in test [6] was “binds” in each case.
